Measurements as given in the supplement of paper PMC10849652.
The other results are listed elsewhere or left out.

By UniProt entry, the sequences of proteins in these tests, tags left out. Where a name states a change or a piece, a line headed by the entry shows the natural chain unless it says otherwise.
UniProt Q8IWZ3: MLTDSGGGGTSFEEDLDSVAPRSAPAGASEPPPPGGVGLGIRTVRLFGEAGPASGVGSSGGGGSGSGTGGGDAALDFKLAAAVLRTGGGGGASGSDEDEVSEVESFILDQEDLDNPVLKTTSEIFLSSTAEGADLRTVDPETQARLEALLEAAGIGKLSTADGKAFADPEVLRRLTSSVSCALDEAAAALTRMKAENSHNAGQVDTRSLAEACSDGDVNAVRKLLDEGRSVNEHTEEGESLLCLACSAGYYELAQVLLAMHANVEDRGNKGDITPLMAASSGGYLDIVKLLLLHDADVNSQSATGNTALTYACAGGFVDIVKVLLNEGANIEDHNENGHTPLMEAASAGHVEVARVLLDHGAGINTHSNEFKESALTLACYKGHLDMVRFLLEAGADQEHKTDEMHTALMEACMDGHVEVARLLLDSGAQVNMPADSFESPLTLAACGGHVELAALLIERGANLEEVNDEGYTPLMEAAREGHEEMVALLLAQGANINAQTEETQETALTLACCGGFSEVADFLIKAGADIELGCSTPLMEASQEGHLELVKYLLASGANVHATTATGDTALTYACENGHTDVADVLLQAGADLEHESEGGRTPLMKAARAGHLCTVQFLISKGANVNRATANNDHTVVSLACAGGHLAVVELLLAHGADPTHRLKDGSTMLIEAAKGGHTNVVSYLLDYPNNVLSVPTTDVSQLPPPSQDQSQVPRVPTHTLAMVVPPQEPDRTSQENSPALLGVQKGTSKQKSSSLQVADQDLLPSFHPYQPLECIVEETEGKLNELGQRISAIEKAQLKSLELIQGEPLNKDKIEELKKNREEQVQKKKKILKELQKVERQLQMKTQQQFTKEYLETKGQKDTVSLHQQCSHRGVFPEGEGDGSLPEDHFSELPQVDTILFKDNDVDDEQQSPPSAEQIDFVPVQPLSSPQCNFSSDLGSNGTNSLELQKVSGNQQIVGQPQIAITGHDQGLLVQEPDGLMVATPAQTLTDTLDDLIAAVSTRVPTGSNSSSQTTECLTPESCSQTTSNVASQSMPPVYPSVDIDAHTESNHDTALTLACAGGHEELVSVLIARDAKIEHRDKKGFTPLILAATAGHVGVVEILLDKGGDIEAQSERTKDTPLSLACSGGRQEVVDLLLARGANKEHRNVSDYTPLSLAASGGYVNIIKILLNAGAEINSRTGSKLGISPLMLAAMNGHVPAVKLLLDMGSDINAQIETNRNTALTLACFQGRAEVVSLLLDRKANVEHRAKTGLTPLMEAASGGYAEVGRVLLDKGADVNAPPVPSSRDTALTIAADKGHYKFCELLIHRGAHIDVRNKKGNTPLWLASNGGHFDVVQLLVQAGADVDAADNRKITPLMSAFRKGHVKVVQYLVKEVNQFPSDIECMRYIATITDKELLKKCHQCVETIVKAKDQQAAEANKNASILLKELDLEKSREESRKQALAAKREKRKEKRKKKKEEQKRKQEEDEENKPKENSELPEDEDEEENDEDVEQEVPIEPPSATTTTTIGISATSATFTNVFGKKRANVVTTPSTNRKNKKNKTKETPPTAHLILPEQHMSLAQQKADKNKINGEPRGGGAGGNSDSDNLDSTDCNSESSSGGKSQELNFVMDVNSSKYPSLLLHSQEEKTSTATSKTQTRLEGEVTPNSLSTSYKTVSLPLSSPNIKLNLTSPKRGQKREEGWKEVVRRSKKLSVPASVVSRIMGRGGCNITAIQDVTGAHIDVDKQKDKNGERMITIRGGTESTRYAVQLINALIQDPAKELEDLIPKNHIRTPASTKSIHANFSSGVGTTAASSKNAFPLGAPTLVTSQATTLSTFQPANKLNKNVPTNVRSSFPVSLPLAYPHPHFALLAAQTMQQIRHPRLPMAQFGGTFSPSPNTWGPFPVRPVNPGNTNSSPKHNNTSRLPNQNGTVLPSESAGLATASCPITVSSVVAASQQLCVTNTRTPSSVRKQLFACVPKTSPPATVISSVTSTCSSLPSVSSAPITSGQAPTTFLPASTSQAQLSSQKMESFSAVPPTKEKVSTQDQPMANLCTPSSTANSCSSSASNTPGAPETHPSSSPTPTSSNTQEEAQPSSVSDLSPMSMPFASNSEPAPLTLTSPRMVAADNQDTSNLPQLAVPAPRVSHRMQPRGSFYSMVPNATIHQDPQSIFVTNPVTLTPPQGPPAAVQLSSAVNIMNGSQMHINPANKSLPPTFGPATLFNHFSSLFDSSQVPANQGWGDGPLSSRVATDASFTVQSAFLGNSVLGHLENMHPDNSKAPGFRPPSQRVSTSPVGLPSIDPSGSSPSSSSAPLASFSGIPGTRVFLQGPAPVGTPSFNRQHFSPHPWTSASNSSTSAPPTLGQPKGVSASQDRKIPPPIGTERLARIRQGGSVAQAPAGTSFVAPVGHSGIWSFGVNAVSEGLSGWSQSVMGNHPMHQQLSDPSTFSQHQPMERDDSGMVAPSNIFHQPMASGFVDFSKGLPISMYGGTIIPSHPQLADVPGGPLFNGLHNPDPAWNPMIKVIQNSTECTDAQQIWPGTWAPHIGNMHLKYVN
UniProt Q9BXX2: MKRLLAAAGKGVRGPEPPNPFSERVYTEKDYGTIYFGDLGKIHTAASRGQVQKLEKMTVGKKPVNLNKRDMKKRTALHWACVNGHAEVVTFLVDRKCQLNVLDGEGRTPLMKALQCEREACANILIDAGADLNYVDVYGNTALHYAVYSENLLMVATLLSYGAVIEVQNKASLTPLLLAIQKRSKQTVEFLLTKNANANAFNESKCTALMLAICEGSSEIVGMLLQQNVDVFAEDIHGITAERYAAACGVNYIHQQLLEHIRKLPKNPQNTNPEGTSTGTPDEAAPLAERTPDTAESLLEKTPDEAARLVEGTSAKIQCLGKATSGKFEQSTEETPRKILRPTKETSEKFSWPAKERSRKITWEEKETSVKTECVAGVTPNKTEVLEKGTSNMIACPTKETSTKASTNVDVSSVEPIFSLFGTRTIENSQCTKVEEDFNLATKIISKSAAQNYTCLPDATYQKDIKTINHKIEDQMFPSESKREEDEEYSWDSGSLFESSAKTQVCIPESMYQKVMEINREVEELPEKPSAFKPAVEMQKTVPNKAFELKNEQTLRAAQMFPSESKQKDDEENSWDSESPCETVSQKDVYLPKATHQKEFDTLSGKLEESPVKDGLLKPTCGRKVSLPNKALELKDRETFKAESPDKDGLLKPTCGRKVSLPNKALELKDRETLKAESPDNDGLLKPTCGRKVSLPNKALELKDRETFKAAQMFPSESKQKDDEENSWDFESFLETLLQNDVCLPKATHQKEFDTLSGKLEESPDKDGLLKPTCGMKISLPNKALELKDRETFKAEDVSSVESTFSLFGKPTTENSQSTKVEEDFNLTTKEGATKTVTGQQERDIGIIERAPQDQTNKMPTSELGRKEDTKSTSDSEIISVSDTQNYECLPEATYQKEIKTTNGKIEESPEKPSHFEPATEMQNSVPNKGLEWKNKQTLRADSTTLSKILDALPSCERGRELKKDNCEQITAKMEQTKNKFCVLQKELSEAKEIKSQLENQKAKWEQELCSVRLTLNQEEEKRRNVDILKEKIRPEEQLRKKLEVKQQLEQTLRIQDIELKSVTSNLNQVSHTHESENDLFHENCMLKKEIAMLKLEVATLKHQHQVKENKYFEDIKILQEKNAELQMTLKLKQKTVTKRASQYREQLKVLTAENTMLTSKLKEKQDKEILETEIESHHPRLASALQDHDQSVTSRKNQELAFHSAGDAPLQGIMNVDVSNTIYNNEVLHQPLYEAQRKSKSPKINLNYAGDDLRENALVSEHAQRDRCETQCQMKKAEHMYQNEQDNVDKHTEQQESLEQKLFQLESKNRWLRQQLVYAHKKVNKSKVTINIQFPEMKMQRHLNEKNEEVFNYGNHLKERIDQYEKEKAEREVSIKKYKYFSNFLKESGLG
UniProt O00189: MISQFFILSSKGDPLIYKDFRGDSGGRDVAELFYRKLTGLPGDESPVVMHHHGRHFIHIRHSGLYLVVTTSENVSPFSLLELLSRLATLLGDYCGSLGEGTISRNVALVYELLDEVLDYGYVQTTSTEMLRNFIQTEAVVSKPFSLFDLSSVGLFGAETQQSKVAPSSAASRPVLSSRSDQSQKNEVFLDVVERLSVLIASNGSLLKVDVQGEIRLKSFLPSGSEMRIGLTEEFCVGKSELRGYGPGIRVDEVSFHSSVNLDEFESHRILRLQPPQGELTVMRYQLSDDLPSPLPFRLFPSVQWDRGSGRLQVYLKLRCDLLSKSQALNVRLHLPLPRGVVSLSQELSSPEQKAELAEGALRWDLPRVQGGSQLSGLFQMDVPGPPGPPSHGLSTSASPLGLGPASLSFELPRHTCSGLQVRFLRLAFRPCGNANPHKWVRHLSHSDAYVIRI
UniProt Q8IY63: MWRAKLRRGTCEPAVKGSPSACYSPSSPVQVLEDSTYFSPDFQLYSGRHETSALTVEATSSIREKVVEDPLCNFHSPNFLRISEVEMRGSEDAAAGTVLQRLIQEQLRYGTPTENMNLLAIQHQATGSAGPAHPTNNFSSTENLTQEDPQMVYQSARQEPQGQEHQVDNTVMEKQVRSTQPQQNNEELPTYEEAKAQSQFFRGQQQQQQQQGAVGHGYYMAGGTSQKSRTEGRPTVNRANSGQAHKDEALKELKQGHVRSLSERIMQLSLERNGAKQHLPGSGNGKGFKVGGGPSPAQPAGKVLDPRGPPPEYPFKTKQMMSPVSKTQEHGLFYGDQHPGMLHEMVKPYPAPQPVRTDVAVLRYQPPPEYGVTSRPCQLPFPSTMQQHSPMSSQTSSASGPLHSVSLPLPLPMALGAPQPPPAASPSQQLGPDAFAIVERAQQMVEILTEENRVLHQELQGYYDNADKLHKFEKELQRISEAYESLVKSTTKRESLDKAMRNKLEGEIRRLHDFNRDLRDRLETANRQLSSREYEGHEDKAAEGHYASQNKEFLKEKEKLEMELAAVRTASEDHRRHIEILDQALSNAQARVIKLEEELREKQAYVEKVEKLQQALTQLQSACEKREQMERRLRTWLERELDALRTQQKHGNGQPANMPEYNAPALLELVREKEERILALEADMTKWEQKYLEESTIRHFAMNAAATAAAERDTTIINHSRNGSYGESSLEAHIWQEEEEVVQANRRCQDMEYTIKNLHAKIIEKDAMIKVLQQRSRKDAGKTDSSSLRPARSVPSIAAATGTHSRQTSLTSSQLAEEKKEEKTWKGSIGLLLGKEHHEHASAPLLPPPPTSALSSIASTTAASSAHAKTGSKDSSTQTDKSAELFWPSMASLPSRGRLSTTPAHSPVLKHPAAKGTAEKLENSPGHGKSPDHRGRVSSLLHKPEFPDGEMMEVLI
UniProt Q13686: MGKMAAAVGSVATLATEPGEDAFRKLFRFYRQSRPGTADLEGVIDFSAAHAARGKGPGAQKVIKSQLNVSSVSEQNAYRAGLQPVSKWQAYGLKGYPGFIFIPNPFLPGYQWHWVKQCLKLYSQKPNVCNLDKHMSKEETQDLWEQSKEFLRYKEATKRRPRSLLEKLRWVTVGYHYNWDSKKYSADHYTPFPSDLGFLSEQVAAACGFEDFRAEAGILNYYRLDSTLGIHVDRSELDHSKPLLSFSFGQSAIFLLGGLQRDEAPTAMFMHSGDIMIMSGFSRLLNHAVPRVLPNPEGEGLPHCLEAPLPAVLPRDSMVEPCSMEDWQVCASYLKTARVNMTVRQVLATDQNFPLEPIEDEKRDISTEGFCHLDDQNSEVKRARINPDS
UniProt P47895: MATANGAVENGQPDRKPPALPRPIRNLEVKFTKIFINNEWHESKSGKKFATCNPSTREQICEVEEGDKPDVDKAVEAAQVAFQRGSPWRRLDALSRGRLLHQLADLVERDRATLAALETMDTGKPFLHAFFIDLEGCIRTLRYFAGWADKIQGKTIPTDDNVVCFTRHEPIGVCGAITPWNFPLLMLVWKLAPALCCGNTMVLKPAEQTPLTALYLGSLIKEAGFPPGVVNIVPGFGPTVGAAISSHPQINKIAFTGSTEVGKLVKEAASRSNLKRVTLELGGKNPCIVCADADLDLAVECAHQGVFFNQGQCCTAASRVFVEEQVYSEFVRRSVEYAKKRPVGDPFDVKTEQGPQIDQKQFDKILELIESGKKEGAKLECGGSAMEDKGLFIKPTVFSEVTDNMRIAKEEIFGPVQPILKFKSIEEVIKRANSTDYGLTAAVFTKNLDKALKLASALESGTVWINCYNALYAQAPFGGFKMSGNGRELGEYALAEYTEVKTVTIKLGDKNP
UniProt Q3KRA9: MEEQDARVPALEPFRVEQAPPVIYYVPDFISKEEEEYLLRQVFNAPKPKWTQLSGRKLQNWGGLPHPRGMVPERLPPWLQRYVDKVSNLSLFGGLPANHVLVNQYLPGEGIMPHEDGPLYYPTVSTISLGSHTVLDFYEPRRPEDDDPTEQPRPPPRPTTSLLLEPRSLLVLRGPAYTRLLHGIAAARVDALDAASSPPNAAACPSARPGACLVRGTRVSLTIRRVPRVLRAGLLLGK

Key:
Assay in all cases: log2 fold change, soluble protein after heating vs DMSO (PISA); higher = thermal stabilisation; K562 lysate, 10 uM; active = over 0.2 and 3.5 SD of the protein, either way, in both replicates (recomputed)
lapatinib = compound: CS(=O)(=O)CCNCc1ccc(-c2ccc3ncnc(Nc4ccc(OCc5cccc(F)c5)c(Cl)c4)c3c2)o1 [lapatinib]
Method in brief: (§1)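 Values give the log-two fold change in thermal stability against solvent controls, from duplicates. Crude K562 extract at 1 mg/mL protein, made by dounce homogenisation in PBS pH 7.4 with 1 mM MgCl2, was treated with 10 μM compound for 30 min. After 3 min heating across 48°C-58°C, aliquots were pooled, adjusted to 0.5% NP-40 at 4°C and centrifuged at 21,000xg for 90 min. The supernatant was measured by TMTpro 16plex LC-MS/MS with channel sums equalised.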

[1] = compound: NC(=O)c1cnc(N[C@@H]2CCCC[C@@H]2N)nc1Nc1cccc(-n2nccn2)c1
Method in brief: as §1

pictilisib = compound: CS(=O)(=O)N1CCN(Cc2cc3nc(-c4cccc5[nH]ncc45)nc(N4CCOCC4)c3s2)CC1 [pictilisib]
Method in brief: as §1

[2] = compound: C[C@H](C1=CC=C(C=C1)C(=O)NC2=C3C=CNC3=NC=C2)N
Method in brief: as §1

gandotinib = compound: Cc1cc(Nc2cc(CN3CCOCC3)c3nc(C)c(Cc4ccc(Cl)cc4F)n3n2)n[nH]1 [gandotinib]
Method in brief: as §1

tozasertib = compound: Cc1cc(Nc2cc(N3CCN(C)CC3)nc(Sc3ccc(NC(=O)C4CC4)cc3)n2)n[nH]1 [tozasertib]
Method in brief: as §1

bafetinib = compound: Cc1ccc(NC(=O)c2ccc(CN3CC[C@H](N(C)C)C3)c(C(F)(F)F)c2)cc1Nc1nccc(-c2cncnc2)n1 [bafetinib]
Method in brief: as §1

[3] = compound: Cc1cccc(CC(=O)N2CCc3c2ccc(-c2cn(C)c4ncnc(N)c24)c3F)n1
Method in brief: as §1

nilotinib = compound: Cc1cn(-c2cc(NC(=O)c3ccc(C)c(Nc4nccc(-c5cccnc5)n4)c3)cc(C(F)(F)F)c2)cn1 [nilotinib]
Method in brief: as §1

[4] = compound: Cc1nc(Nc2n[nH]c3c2CN(C(=O)N[C@H](CN(C)C)c2ccccc2)C3(C)C)c2sccc2n1
Method in brief: as §1

[5] = compound: Cc1ncc(-c2ccnc(Nc3ccc(S(C)(=O)=O)cc3)n2)n1C(C)C
Method in brief: as §1

tipifarnib = compound: Cn1cncc1[C@@](N)(c1ccc(Cl)cc1)c1ccc2c(c1)c(-c1cccc(Cl)c1)cc(=O)n2C [tipifarnib]
Method in brief: as §1

[6] = compound: NC1(c2ccc(-c3nc4ccn5c(=O)[nH]nc5c4cc3-c3ccccc3)cc2)CCC1
Method in brief: as §1

crizotinib = compound: C[C@@H](Oc1cc(-c2cnn(C3CCNCC3)c2)cnc1N)c1c(Cl)ccc(F)c1Cl [crizotinib]
Method in brief: as §1

duvelisib = compound: C[C@H](Nc1ncnc2nc[nH]c12)c1cc2cccc(Cl)c2c(=O)n1-c1ccccc1 [duvelisib]
Method in brief: as §1

doramapimod = compound: Cc1ccc(-n2nc(C(C)(C)C)cc2NC(=O)Nc2ccc(OCCN3CCOCC3)c3ccccc23)cc1 [doramapimod]
Method in brief: as §1

dasatinib = compound: Cc1nc(Nc2ncc(C(=O)Nc3c(C)cccc3Cl)s2)cc(N2CCN(CCO)CC2)n1 [dasatinib]
Method in brief: as §1

[7] = compound: Cn1cc(-c2ccc3c(c2)CCN3C(=O)Cc2cccc(C(F)(F)F)c2)c2c(N)ncnc21
Method in brief: as §1

quisinostat = compound: Cn1cc(CNCC2CCN(c3ncc(C(=O)NO)cn3)CC2)c2ccccc21 [quisinostat]
Method in brief: as §1

[8] = compound: NC(=O)Nc1cc(-c2cccc(F)c2)sc1C(=O)N[C@H]1CCCNC1
Method in brief: as §1

Row | Target | log2 fold change (lapatinib) | log2 fold change [1] | log2 fold change (pictilisib) | log2 fold change [2] | log2 fold change (gandotinib) | log2 fold change (tozasertib) | log2 fold change (bafetinib) | log2 fold change [3] | log2 fold change (nilotinib) | log2 fold change [4] | log2 fold change [5] | log2 fold change (tipifarnib) | log2 fold change [6] | log2 fold change (crizotinib) | log2 fold change (duvelisib) | log2 fold change (doramapimod) | log2 fold change (dasatinib) | log2 fold change [7] | log2 fold change (quisinostat) | log2 fold change [8]
1 | AP1G1 (UniProt H3BV30) | inactive: 0.173 | inactive: 0.016 | – | – | – | – | – | – | – | – | – | – | – | – | – | – | – | – | – | –
2 | ANKRD44 isoform 2 (UniProt Q8N8A2) | inactive: -0.004 | inactive: -0.019 | inactive: 0.046 | active: -1.57 | inactive: 0.465 | inactive: 0.12 | inactive: -0.405 | active: 0.766 | inactive: -0.19 | inactive: -0.03 | inactive: -0.216 | inactive: 0 | inactive: 0.025 | – | – | – | – | – | – | –
3 | ANKHD1 isoform 2 (UniProt Q8IWZ3) | – | – | inactive: 0.012 | inactive: 0.091 | inactive: -0.109 | inactive: 0.082 | inactive: 0.022 | inactive: -0.016 | inactive: -0.015 | inactive: 0.038 | inactive: -0.035 | inactive: -0.047 | inactive: -0.188 | inactive: 0.02 | inactive: -0.008 | inactive: -0.077 | inactive: -0.027 | inactive: 0.119 | inactive: -0.007 | inactive: 0.037
4 | ANKH (UniProt Q9HCJ1) | inactive: 0.014 | inactive: 0.046 | – | – | – | inactive: -0.067 | – | – | inactive: -0.145 | inactive: 0.064 | inactive: -0.209 | inactive: 0.04 | inactive: 0.038 | inactive: -0.007 | – | inactive: 0.028 | – | – | inactive: -0.091 | inactive: 0.002
5 | ANKS1B (UniProt Q7Z6G8) | inactive: 0.048 | inactive: -0.041 | – | – | – | – | – | – | – | – | – | – | – | – | – | – | – | – | – | –
6 | ANKRD13B (UniProt Q86YJ7) | inactive: 0.085 | inactive: -0.025 | – | – | – | inactive: 0.143 | – | – | – | – | – | – | – | – | inactive: 0.06 | – | inactive: -0.073 | inactive: 0.19 | – | –
7 | ANAPC16 (UniProt Q96DE5) | inactive: 0.087 | inactive: -0.009 | – | inactive: 0.095 | inactive: -0.072 | inactive: 0.121 | – | inactive: -0.145 | inactive: -0.105 | inactive: -0.319 | inactive: -0.159 | inactive: 0.068 | inactive: 0.059 | inactive: -0.023 | inactive: -0.002 | inactive: -0.008 | inactive: 0.021 | inactive: 0.001 | inactive: -0.045 | inactive: 0.003
8 | ANKRD30B (UniProt Q9BXX2) | inactive: -0.049 | inactive: 0.059 | inactive: -0.068 | active: -0.558 | inactive: 0.337 | inactive: -0.005 | inactive: -0.163 | inactive: 0.397 | inactive: 0.061 | inactive: -0.076 | inactive: 0.072 | inactive: -0.065 | inactive: -0.051 | – | inactive: 0.087 | – | inactive: -0.061 | inactive: -0.015 | – | –
9 | AMBRA1 isoform 5 (UniProt Q9C0C7) | inactive: -0.074 | inactive: 0.029 | – | inactive: -0.011 | inactive: 0.007 | inactive: -0.055 | – | inactive: 0.109 | inactive: 0.08 | inactive: 0.063 | inactive: -0.139 | inactive: -0.055 | inactive: 0.066 | inactive: -0.007 | inactive: -0.062 | inactive: 0.051 | inactive: -0.164 | inactive: 0.201 | inactive: -0.01 | inactive: 0.03
10 | ANKHD1 (UniProt D6RHC4) | inactive: 0.03 | inactive: 0 | – | – | – | – | – | – | – | – | – | – | inactive: -0.226 | – | inactive: 0.153 | – | inactive: 0.069 | inactive: -0.126 | – | –
11 | AP4M1 (UniProt O00189) | – | – | inactive: 0.007 | inactive: -0.015 | inactive: -0.044 | inactive: 0.044 | inactive: -0.026 | inactive: -0.009 | inactive: -0.013 | inactive: 0.009 | inactive: 0.001 | inactive: 0.084 | inactive: 0.023 | inactive: -0.068 | inactive: 0.117 | inactive: 0.045 | inactive: -0.027 | inactive: -0.066 | inactive: -0.112 | inactive: 0.012
12 | AP2M1 (UniProt C9JPV8) | inactive: 0.03 | inactive: 0.391 | – | – | – | – | – | – | – | – | – | – | – | – | – | – | – | – | – | –
13 | AKT1S1 (UniProt M0R2V8) | inactive: -0.142 | inactive: 0.041 | – | – | – | – | – | – | inactive: 0.068 | inactive: 0.1 | inactive: 0.145 | inactive: 0.169 | – | – | – | – | – | – | – | –
14 | AP3D1 isoform 2 (UniProt O14617) | inactive: 0.084 | inactive: 0.034 | – | inactive: 0.19 | inactive: -0.429 | – | – | inactive: -0.084 | inactive: -0.287 | inactive: 0.035 | inactive: 0.376 | inactive: -0.132 | inactive: -0.121 | – | – | – | – | – | – | –
15 | ANGPTL4 (UniProt M0R3A2) | inactive: 0.353 | inactive: 0.227 | inactive: 0.266 | inactive: 0.283 | inactive: -0.309 | inactive: 0.108 | inactive: 0.003 | inactive: -0.192 | – | – | – | – | inactive: 0.167 | – | – | – | – | – | – | –
16 | AMN1 (UniProt Q8IY45) | inactive: 0.331 | inactive: -0.188 | – | inactive: -0.059 | inactive: 0.31 | – | – | inactive: -0.1 | – | – | – | – | – | – | – | – | – | – | – | –
17 | ANK2 (UniProt Q01484) | – | – | inactive: 0.149 | inactive: 0.019 | inactive: -0.224 | – | inactive: 0.223 | inactive: -0.018 | inactive: -0.068 | inactive: -0.077 | inactive: 0.109 | inactive: 0.145 | – | inactive: -0.018 | inactive: 0 | inactive: -0.064 | inactive: -0.095 | inactive: 0.077 | inactive: -0.086 | inactive: -0.065
18 | ANKRD11 (UniProt Q6UB99) | – | – | – | inactive: 0.103 | inactive: -0.07 | inactive: -0.048 | – | inactive: 0.314 | – | – | – | – | inactive: -0.096 | inactive: -0.122 | inactive: 0.11 | inactive: 0.157 | inactive: 0.063 | inactive: -0.004 | inactive: 0.009 | inactive: 0.039
19 | AMOTL1 (UniProt Q8IY63) | – | – | inactive: -0.049 | inactive: 0.017 | inactive: -0.166 | inactive: 0.041 | inactive: 0.006 | inactive: 0.065 | inactive: 0 | inactive: 0.081 | inactive: 0.198 | inactive: -0.062 | inactive: 0.003 | inactive: 0.023 | inactive: -0.11 | inactive: 0.012 | inactive: 0.034 | inactive: -0.18 | inactive: -0.048 | inactive: 0.01
20 | ALKBH1 (UniProt Q13686) | – | – | – | inactive: -0.016 | inactive: 0 | inactive: 0.09 | – | inactive: 0.048 | inactive: -0.087 | inactive: -0.026 | inactive: -0.052 | inactive: 0.137 | inactive: 0.116 | – | inactive: 0.014 | – | inactive: -0.249 | inactive: 0.007 | – | –
21 | ALG13 isoform 2 (UniProt Q9NP73) | – | – | – | inactive: 0.054 | inactive: -0.088 | – | – | inactive: 0.106 | inactive: 0.142 | inactive: -0.082 | inactive: -0.066 | inactive: 0.371 | – | – | – | – | – | – | – | –
22 | ALDH1A3 (UniProt P47895) | – | – | – | – | – | inactive: 0.447 | – | – | – | – | – | – | – | – | – | – | – | – | – | –
23 | ALKBH6 isoform 2 (UniProt Q3KRA9) | – | – | – | inactive: 0.077 | inactive: -0.05 | inactive: 0.006 | – | inactive: -0.006 | inactive: -0.015 | inactive: -0.096 | inactive: 0.012 | inactive: 0.068 | inactive: 0.055 | inactive: -0.036 | inactive: 0.02 | inactive: 0.175 | inactive: -0.102 | inactive: 0.016 | inactive: 0.04 | inactive: -0.126
24 | AP1B1 isoform 3 (UniProt Q10567) | – | – | inactive: -0.203 | – | – | – | inactive: 0.279 | – | – | – | – | – | – | inactive: -0.09 | – | inactive: 0.409 | – | – | inactive: -0.033 | inactive: -0.012

Excerpt, nos. 6–7
Row | Target | log2 fold change (lapatinib) | log2 fold change [1] | log2 fold change (pictilisib) | log2 fold change [2] | log2 fold change (gandotinib) | log2 fold change (tozasertib) | log2 fold change (bafetinib) | log2 fold change [3] | log2 fold change (nilotinib) | log2 fold change [4] | log2 fold change [5] | log2 fold change (tipifarnib) | log2 fold change [6] | log2 fold change (crizotinib) | log2 fold change (duvelisib) | log2 fold change (doramapimod) | log2 fold change (dasatinib) | log2 fold change [7] | log2 fold change (quisinostat) | log2 fold change [8]
6 | ANKRD13B (UniProt Q86YJ7) | inactive: 0.085 | inactive: -0.025 | – | – | – | inactive: 0.143 | – | – | – | – | – | – | – | – | inactive: 0.06 | – | inactive: -0.073 | inactive: 0.19 | – | –
7 | ANAPC16 (UniProt Q96DE5) | inactive: 0.087 | inactive: -0.009 | – | inactive: 0.095 | inactive: -0.072 | inactive: 0.121 | – | inactive: -0.145 | inactive: -0.105 | inactive: -0.319 | inactive: -0.159 | inactive: 0.068 | inactive: 0.059 | inactive: -0.023 | inactive: -0.002 | inactive: -0.008 | inactive: 0.021 | inactive: 0.001 | inactive: -0.045 | inactive: 0.003
